Experimental data reported in PubChem BioAssay AID662 (National Center for Advancing Translational Sciences (NCATS), 2007).
This is one part of the list. These are further read-outs of the screen, such as a control signal, another cell line or another target. No call is given for them. Most of these compounds were active or inconclusive in the main read-out, so they are no random draw. Potencies come from curve fits of mixed quality, noted in brackets.

test: Cell signaling CRE-BLA (Fsk stim); conditions: CHO CRE-bla reporter (cAMP response element driving beta-lactamase), forskolin EC10, beta-lactamase ratio; measured here: 460 nm blue channel
In short: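 AC50 values, positive or negative, reflect shifts in EC10 NKH 477-induced CRE-bla reporter activity in CHO cells. Incubation lasted 3 h at 37 °C before CCF4 substrate (2 h, room temperature) and ratiometric 460/530 nm reading.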

Row | Structure (SMILES) | AC50
1 | CCOc1ccccc1CNC(=O)C1CCCN(c2nc3ccccc3o2)C1 (configuration not stated) | 12.6 µM [rising, single point]
2 | FC(F)(F)c1ccccc1-c1ccc2ncnc(NC3CCNCC3)c2c1 | 10 µM [rising, partial curve]
3 | COc1ccc(N2CCN(c3nc(NCCc4ccc(OC)c(OC)c4)nc(OC)n3)CC2)cc1 | 3.16 µM [rising, full curve]
4 | Cc1ccc(CNC(=O)CCS(=O)(=O)c2cccc3nonc23)cc1 | 25.1 µM [falling, single point]
5 | N#CCSc1nc(Nc2ccc3c(c2)OCO3)c2ccccc2n1 | 1.58 µM [rising, partial curve]
6 | O=c1c(-c2cccs2)nc2cnc(Oc3cccc(Cl)c3)nc2n1C[C@H]1CCCO1 | 6.31 µM [rising, partial curve]
7 | O=c1oc2c(CN3CCOCC3)c(O)ccc2c2c1CCC2 | 12.6 µM [rising, single point]
8 | Cc1c(C(=O)OCC(C)C)[nH]c2c1C(=O)CC(c1ccco1)C2 (configuration not stated) | 2 µM [rising, full curve]
9 | COc1ccc(-c2nc3cnc(OCc4ccccc4)nc3n(CCC#N)c2=O)cc1 | 12.6 µM [rising, partial curve]
10 | CN(C)c1ncc2nc(-c3ccc(Cl)cc3)c(=O)n(-c3ccccc3)c2n1 | 10 µM [rising, partial curve]
11 | Cc1cc(NC(=O)CSc2nc(-c3ccco3)cc(C(F)(F)F)n2)no1 | 3.16 µM [rising, full curve]
12 | CCC(C)NC(=O)C1CCN(C(=O)N(C)C)CC1 (configuration not stated) | 25.1 µM [rising, single point]
13 | COc1cc(Cl)c(C)cc1NC(=O)COc1cc(C)nc(C(C)C)n1 | 3.16 µM [rising, single point]
14 | CCN(C(=O)CSc1nc2cc(C(=O)OC)ccc2c(=O)n1Cc1ccco1)c1cccc(C)c1 | 5.01 µM [rising, partial curve]
15 | CCOC(=O)C1C(c2cccc(Cl)c2Cl)NC(=O)NC1(O)C(F)(F)F (configuration not stated) | 0.398 µM [rising, partial curve]
16 | C=C(C)COc1ccc(-c2n[nH]c(C)c2-c2ccccc2OC)c(O)c1 | 15.8 µM [falling, partial curve]
17 | Cc1c(C(=O)O)c(O)cc2c1C(=O)c1c(O)c([C@@H]3O[C@H](CO)[C@@H](O)[C@H](O)[C@@H]3O)c(O)c(O)c1C2=O | 31.6 µM [falling, single point]
18 | CCOc1ccc2nc(NCCNC(=O)CC)c(C#N)cc2c1 | 12.6 µM [falling, single point]
19 | COc1ccccc1N1CCN(CCCNC(=O)Nc2ccccc2)CC1 | 0.00316 µM [falling, full curve, poor fit]
20 | O=C(Nc1n[nH]c(C2CCCCC2)n1)C1CCCCC1 | 25.1 µM [rising, single point]
21 | Cc1ccc(CCN2CC(C(=O)NCc3ccco3)CC2=O)cc1 (configuration not stated) | 2 µM [falling, partial curve, poor fit]
22 | COc1cc(OC)c(NC(=O)CCc2nc(-c3cccs3)no2)cc1Cl | 7.94 µM [rising, partial curve, poor fit]
23 | CCN(CC)C(=O)CSc1nc(O)cc(=O)n1CC | 0.398 µM [rising, partial curve]

Row | Structure (SMILES) | AC50
24 | Cc1ccc(S(=O)(=O)N2CC3CCC2C3)cc1 (configuration not stated) | 2.51 µM [falling, partial curve, poor fit]
25 | COc1ccc(N2C(=O)CC(NC34CC5CC(CC(C5)C3)C4)C2=O)c(OC)c1 (configuration not stated) | 0.0398 µM [falling, partial curve, poor fit]
26 | CC1(C)CC(=O)c2c(nn(-c3ccccc3)c2N)C1 | 25.1 µM [rising, single point]
27 | Cc1cc(O)ccc1Nc1nc(-c2sc(N)nc2C)cs1 | 2 µM [falling, full curve]
28 | Cc1ccc(S(=O)(=O)CCC(=O)OCC(=O)N2CC(=O)Nc3ccccc32)cc1 | 25.1 µM [rising, single point]
29 | CNC(=O)CSc1nnc(-c2cccc(S(=O)(=O)N3CCOCC3)c2)n1-c1ccc(F)cc1 | 2.51 µM [rising, single point]
30 | CC(=O)N(CCO)Cc1cc2cc(C)cc(C)c2[nH]c1=O | 0.501 µM [falling, partial curve]
31 | CCOC(=O)c1ccc(NC(=O)c2ccc3c(c2)OCO3)cc1 | 0.01 µM [falling, full curve, poor fit]
32 | CC(=O)CC(=O)Nc1ccc2ccccc2c1 | 0.501 µM [rising, partial curve]
33 | CCc1ccc(NC(=O)CSc2nnc(Cc3cccn3C)n2-c2ccc(F)cc2)cc1 | 12.6 µM [falling, partial curve]
34 | COc1cc(C(=O)n2nc(C)cc2C)cc(OC)c1OC | 1 µM [falling, single point]
35 | Cn1cccc1Cc1nnc(SCC(=O)Nc2cccc(Cl)c2)n1-c1ccc(F)cc1 | 15.8 µM [falling, single point]
36 | CCCC(=O)Nc1nn(C)c2nc3c(C)cccc3cc12 | 2.51 µM [rising, full curve]
37 | COc1ccc2[nH]cc(CCNc3nc(-c4cccc(C#N)c4)nc4ccccc34)c2c1 | 2.51 µM [rising, single point]
38 | Cn1c(=O)c2c(nc(CN3CCCCC3)n2CCc2ccccc2)n(C)c1=O | 20 µM [rising, single point]
39 | COc1ccc(OC)c(C2C(C(C)=O)=C(O)C(=O)N2c2ccc(O)cc2)c1 (configuration not stated) | 0.1 µM [rising, full curve, poor fit]
40 | COCCNC(=O)CSc1nc2ccc(N3CCOCC3)cc2c(=O)n1CCc1ccccc1 | 10 µM [rising, single point]
41 | CCOC(=O)c1sc(/N=C/Nc2nc(C)c(C(=O)OCC)s2)nc1C | 5.01 µM [rising, single point]
42 | Cc1ccc2cc(CCNC(=O)C(C)(C)C)c(=O)[nH]c2c1 | 10 µM [rising, partial curve]
43 | COc1ncc2nc(-c3ccc(F)cc3)c(=O)n(C)c2n1 | 2 µM [rising, partial curve, poor fit]
44 | COC(=O)[C@@]1(Cc2ccc(F)cc2)[C@H]2c3cc(C(=O)N(C)C)n(Cc4ccsc4Br)c3C[C@H]2CN1C(=O)c1ccccc1 | 15.8 µM [rising, partial curve]
45 | Cc1noc(C)c1-c1nccc(N2CCNCC2)n1 | 7.94 µM [rising, partial curve]
46 | COC(=O)c1ccc(C(NC(=O)c2ccco2)[C@]2(C)C[C@H]2C2CCCCC2)cc1 (some centres not stated) | 5.01 µM [falling, single point]

Row | Structure (SMILES) | AC50
47 | CCOC(=O)c1nn(-c2c(C)n(C)n(-c3ccccc3)c2=O)cc1O | 25.1 µM [falling, partial curve]
48 | O=C(OCC(=O)N1CCN(c2ccccc2)CC1)c1ccc2ncsc2c1 | 10 µM [rising, single point]
49 | O=c1ccnc(SCc2ccccc2Cl)[nH]1 | 6.31 µM [rising, single point]
50 | CC(=O)c1c(COC(=O)c2cccnc2)nc2ccccc2[n+]1[O-] | 10 µM [rising, single point]
51 | CCCCCn1c(=O)[nH]c2c(c1=O)CCC2 | 0.126 µM [falling, single point]
52 | O=c1c(-c2ccc(Cl)cc2)nc2cnc(Nc3ccccc3)nc2n1C[C@H]1CCCO1 | 10 µM [rising, partial curve]
53 | Cc1csc(NC(=O)c2cc3c(s2)CCC3)n1 | 5.01 µM [falling, single point]
54 | CN(C)/C=C1/C(=O)Nc2ccccc21 | 0.00316 µM [falling, full curve, poor fit]
55 | COc1ccc(-c2nnc3ccc(SC(C(C)=O)C(C)=O)nn23)cc1OC | 7.94 µM [rising, partial curve]
56 | CCn1c(-c2ccc(N(C)C)cc2)nc2ccccc21 | 10 µM [rising, single point]
57 | Cc1cc2ccccc2c(=O)n1CC(=O)NCC(=O)N1CCN(c2cccc(Cl)c2)CC1 | 0.126 µM [falling, full curve]
58 | O=S(=O)(c1ccc2c(c1)OCCO2)N1CCN(c2cccc(Cl)c2)CC1 | 25.1 µM [falling, single point]
59 | Cc1sc(NC(=O)c2ccco2)nc1-c1ccc2c(c1)CC(C)N2C(=O)C1CC1 (configuration not stated) | 25.1 µM [falling, single point]
60 | O=C(CSc1nnnn1C1CCCC1)c1ccc2c(c1)OCCO2 | 5.01 µM [falling, single point]
61 | Cc1ccc(-n2ncc3c(=O)[nH]c(SC(C)C)nc32)cc1 | 2 µM [rising, full curve]
62 | O=c1c(-c2ccccc2)nc2cncnc2n1Cc1ccc(F)cc1 | 10 µM [rising, partial curve]
63 | CC1CN(C(=O)c2cccc(C(=O)N3CC(C)OC(C)C3)c2)CC(C)O1 (configuration not stated) | 0.631 µM [falling, full curve]
64 | N#Cc1c2n(c3c(=O)n(Cc4ccc(Cl)cc4)cnc13)CCCCC2 | 2 µM [rising, full curve]
65 | N#CC1=C(N)N=C(SCc2ccccc2)C(C(N)=O)C12CCCCC2 (configuration not stated) | 0.398 µM [falling, partial curve]
66 | O=C(OC1CCOC1=O)c1ccc(-c2nc3ccccc3s2)s1 (configuration not stated) | 12.6 µM [rising, single point]
67 | CN(Cc1ccccc1)c1nc2c(c(=O)[nH]c(=O)n2C)n1CCSc1nc2ccccc2[nH]1 | 2.51 µM [rising, partial curve]

Three compounds picked at random from the list so far, as already listed:
Row | Structure (SMILES) | AC50
47 | CCOC(=O)c1nn(-c2c(C)n(C)n(-c3ccccc3)c2=O)cc1O | 25.1 µM [falling, partial curve]
58 | O=S(=O)(c1ccc2c(c1)OCCO2)N1CCN(c2cccc(Cl)c2)CC1 | 25.1 µM [falling, single point]
52 | O=c1c(-c2ccc(Cl)cc2)nc2cnc(Nc3ccccc3)nc2n1C[C@H]1CCCO1 | 10 µM [rising, partial curve]
